Assay results reported in article PMC2674945.

Sequences of proteins named here, by UniProt entry; tags and fusion partners are left off. A change or cut given only in a name is not applied to a line headed by its entry.
UniProt Q38CI8: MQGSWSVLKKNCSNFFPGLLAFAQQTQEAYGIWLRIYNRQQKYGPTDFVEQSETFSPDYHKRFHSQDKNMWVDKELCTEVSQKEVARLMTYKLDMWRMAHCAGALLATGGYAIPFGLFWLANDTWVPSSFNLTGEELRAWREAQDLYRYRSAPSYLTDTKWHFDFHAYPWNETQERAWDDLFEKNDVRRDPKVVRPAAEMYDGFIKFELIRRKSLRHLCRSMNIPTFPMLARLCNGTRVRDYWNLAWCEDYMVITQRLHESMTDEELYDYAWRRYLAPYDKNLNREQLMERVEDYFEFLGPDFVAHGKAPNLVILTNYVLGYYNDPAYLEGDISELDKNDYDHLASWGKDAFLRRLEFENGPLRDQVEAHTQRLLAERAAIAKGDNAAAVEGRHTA
UniProt Q57ZW9: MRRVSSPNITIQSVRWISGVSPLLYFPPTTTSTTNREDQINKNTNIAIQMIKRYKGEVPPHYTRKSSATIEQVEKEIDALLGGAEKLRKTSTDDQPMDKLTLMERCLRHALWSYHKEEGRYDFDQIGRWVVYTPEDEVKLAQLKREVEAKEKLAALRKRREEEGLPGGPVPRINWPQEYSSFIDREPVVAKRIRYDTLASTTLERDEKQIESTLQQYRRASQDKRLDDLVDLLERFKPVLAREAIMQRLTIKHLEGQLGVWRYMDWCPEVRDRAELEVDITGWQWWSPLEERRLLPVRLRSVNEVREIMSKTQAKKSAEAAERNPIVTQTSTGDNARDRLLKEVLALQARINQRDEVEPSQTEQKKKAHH
UniProt Q586H1: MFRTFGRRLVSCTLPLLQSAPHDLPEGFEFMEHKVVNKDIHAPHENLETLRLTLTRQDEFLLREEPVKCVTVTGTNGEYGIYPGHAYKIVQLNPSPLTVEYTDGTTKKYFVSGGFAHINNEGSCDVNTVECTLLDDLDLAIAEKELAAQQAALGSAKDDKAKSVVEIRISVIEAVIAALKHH
UniProt Q389Z3: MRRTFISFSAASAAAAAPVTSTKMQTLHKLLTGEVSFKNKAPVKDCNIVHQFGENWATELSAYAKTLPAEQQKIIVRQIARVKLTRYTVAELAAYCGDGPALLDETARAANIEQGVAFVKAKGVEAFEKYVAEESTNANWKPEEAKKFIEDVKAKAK
UniProt Q385E4: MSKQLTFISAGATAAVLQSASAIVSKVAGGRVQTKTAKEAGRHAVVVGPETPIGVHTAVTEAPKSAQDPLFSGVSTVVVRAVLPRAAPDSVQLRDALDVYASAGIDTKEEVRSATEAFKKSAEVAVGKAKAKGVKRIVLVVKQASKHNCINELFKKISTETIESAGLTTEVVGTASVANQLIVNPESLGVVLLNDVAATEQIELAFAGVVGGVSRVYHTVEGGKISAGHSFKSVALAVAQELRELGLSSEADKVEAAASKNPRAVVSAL
UniProt Q586X8: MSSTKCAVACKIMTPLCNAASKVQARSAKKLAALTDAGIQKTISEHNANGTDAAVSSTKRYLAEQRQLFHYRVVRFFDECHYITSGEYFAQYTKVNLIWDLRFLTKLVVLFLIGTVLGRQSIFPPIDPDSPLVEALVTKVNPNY
UniProt Q57ZE2: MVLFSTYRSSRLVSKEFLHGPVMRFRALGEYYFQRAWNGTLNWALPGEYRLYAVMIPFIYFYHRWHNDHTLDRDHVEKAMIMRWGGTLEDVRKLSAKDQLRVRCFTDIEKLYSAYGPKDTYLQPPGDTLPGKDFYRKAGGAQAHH
UniProt Q582T1: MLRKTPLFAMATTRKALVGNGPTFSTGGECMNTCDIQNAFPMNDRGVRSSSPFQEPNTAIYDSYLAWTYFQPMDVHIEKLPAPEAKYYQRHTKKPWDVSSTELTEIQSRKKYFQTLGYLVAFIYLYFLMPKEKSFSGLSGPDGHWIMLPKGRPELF
UniProt Q57ZM4: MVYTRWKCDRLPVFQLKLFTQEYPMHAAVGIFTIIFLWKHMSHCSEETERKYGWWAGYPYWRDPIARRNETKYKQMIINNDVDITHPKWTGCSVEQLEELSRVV
UniProt Q57Z84: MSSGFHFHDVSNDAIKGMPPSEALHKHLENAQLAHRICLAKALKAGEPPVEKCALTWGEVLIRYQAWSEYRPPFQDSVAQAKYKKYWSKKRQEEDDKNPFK
UniProt Q57VT0: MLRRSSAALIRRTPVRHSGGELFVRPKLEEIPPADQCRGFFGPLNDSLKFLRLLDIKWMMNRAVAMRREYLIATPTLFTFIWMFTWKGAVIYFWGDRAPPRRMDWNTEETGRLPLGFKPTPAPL

Key:
[1] = target: TAP-tagged Tb10.70.7760 (Trypanosoma brucei (strain 427 genomic DNA)) (UniProt Q38CI8); assay: affinity purification with mass spectrometry; TAP Method 1: cells lysed with 1% Triton X-100, IgG affinity chromatography, TEV elution, 10-30% glycerol gradient, pooled ~20S (fractions 7-13) and ~40S (fractions 17-21), calmodulin affinity chromatography, LC-MS/MS
[2] = target: TAP-tagged Tb927.5.2930 (Trypanosoma brucei (strain 427 genomic DNA)) (UniProt Q57ZW9); assay: as above
[3] = target: TAP-tagged Tb10.70.7760 (Trypanosoma brucei (strain 427 genomic DNA)) (UniProt Q38CI8); assay: affinity purification with mass spectrometry; TAP Method 2: cells lysed with 0.25% then 1.25% NP-40, sequential IgG and calmodulin affinity columns; 10-14.5% SDS-PAGE, Sypro Ruby, MS of individual gel bands
[4] = target: TAP-tagged F0 subunit b (Tb927.5.1710) (Trypanosoma brucei (strain 427 genomic DNA)) (UniProt Q57ZP0); assay: as above
[5] = target: TAP-tagged Tb927.5.2930 (Trypanosoma brucei (strain 427 genomic DNA)) (UniProt Q57ZW9); assay: as above
[6] = target: TAP-tagged F0 subunit b (Tb927.5.1710) (Trypanosoma brucei (strain 427 genomic DNA)) (UniProt Q57ZP0); assay: affinity purification with mass spectrometry; TAP Method 1: cells lysed with 1% Triton X-100, IgG affinity chromatography, TEV elution, 10-30% glycerol gradient, pooled ~20S (fractions 7-13) and ~40S (fractions 17-21), calmodulin affinity chromatography, LC-MS/MS
[7] = target: TAP-tagged Tb927.5.2930 (Trypanosoma brucei (strain 427 genomic DNA)) (UniProt Q57ZW9); assay: affinity purification with mass spectrometry; TAP Method 1: cells lysed with 1% Triton X-100, IgG affinity chromatography, TEV elution, 10-30% glycerol gradient, pooled ~10S (fractions 3-5), calmodulin affinity chromatography, LC-MS/MS
[8] = target: TAP-tagged F1 subunit β (Tb927.3.1380) (Trypanosoma brucei (strain 427 genomic DNA)); assay: affinity purification with mass spectrometry; TAP Method 1: cells lysed with 1% Triton X-100, IgG affinity chromatography, TEV elution, 10-30% glycerol gradient, pooled ~20S (fractions 7-13) and ~40S (fractions 17-21), calmodulin affinity chromatography, LC-MS/MS
[9] = target: TAP-tagged F1 subunit β (Tb927.3.1380) (Trypanosoma brucei (strain 427 genomic DNA)); assay: affinity purification with mass spectrometry; TAP Method 2: cells lysed with 0.25% then 1.25% NP-40, sequential IgG and calmodulin affinity columns; 10-14.5% SDS-PAGE, Sypro Ruby, MS of individual gel bands
[10] = target: TAP-tagged Tb10.70.7760 (Trypanosoma brucei (strain 427 genomic DNA)) (UniProt Q38CI8); assay: affinity purification with mass spectrometry; TAP Method 1: cells lysed with 1% Triton X-100, IgG affinity chromatography, TEV elution, 10-30% glycerol gradient, pooled ~10S (fractions 3-5), calmodulin affinity chromatography, LC-MS/MS
[11] = target: TAP-tagged F0 subunit b (Tb927.5.1710) (Trypanosoma brucei (strain 427 genomic DNA)) (UniProt Q57ZP0); assay: as above
[12] = target: TAP-tagged F1 subunit β (Tb927.3.1380) (Trypanosoma brucei (strain 427 genomic DNA)); assay: as above

- binding [1]: binds
- binding [2]: binds
- binding [3]: binds
- binding [4]: binds
- binding [5]: binds
Molecule: F0 subunit b (Tb927.5.1710), endogenous (from UniProt Q57ZP0)

- binding [1]: binds
- binding [6]: binds
- binding [2]: binds
- binding [3]: binds
- binding [4]: binds
- binding [5]: binds
Molecule: F1 subunit δ (Tb927.6.4990) (from UniProt Q586H1)

- binding [1]: binds
- binding [6]: binds
- binding [2]: binds
- binding [3]: binds
- binding [4]: binds
- binding [5]: binds
Molecule: Tb10.6k15.0480 (from UniProt Q389Z3)

- binding [6]: binds
- binding [2]: binds
- binding [3]: no binding
- binding [4]: binds
- binding [5]: binds
Molecule: Tb10.70.7760, endogenous (from UniProt Q38CI8)

- binding [1]: binds
- binding [6]: binds
- binding [2]: binds
- binding [3]: binds
- binding [4]: binds
- binding [5]: binds
- binding [7]: binds
Molecule: Tb11.02.4120 (from UniProt Q385E4)

- binding [1]: binds
- binding [6]: binds
- binding [2]: binds
- binding [3]: binds
- binding [4]: binds
- binding [5]: binds
Molecule: Tb927.2.3610 (from UniProt Q586X8)

- binding [1]: binds
- binding [6]: binds
- binding [2]: binds
- binding [3]: binds
- binding [4]: binds
- binding [5]: binds
Molecule: Tb927.3.1690 (from UniProt Q57ZE2)

- binding [1]: binds
- binding [6]: binds
- binding [2]: binds
Molecule: Tb927.3.2180 (from UniProt Q582T1)

- binding [1]: binds
- binding [6]: binds
- binding [2]: binds
Molecule: Tb927.3.2880 (from UniProt Q57ZM4)

- binding [1]: binds
- binding [6]: binds
- binding [3]: binds
- binding [4]: binds
- binding [5]: no binding
Molecule: Tb927.5.2930, endogenous (from UniProt Q57ZW9)

- binding [1]: binds
- binding [6]: binds
- binding [2]: binds
Molecule: Tb927.5.3090 (from UniProt Q57Z84)

- binding [1]: binds
- binding [6]: binds
- binding [2]: binds
- binding [3]: binds
- binding [4]: binds
- binding [5]: binds
Molecule: Tb927.7.840 (from UniProt Q57VT0)

- binding [1]: binds
- binding [6]: binds
- binding [2]: binds
- binding [8]: binds
- binding [3]: binds
- binding [4]: binds
- binding [5]: binds
- binding [9]: binds
- binding [10]: binds
B1: OSCP (Tb10.6k15.2510) (protein, UniProt Q38AG1 1-255)
chain: MFRRLSSSARAVVAARFYTPPEGLKKLYASDFENSKYPLNIVPSDSVLFAKFLYKAAEEKGNFDNILSDFQKIAAAASKLPIFWERTAVVEKIPEFKQLSEPTFFTLVWMQNNGMLELIQEVAEVYETFVNAKQKKAVAKIFVAPGGEKNVEEARRVAEELHKGLKELADYTLVLKTVVDRTIVKGFAVELAGQYVNKAEGQQKQAGRADEVDYTNLPAPKPQKTVWDDNIETEVLRKYLDGLSQYDMEEAKYGV

- binding [1]: binds
- binding [6]: binds
- binding [2]: binds
- binding [8]: binds
- binding [3]: binds
- binding [4]: binds
- binding [5]: binds
- binding [9]: binds
B2: Tb11.47.0022 (protein, UniProt Q387C5 1-169)
chain: MTKYELKMQYFDEWMIRWRKFQTESDWEIEKGRQWWRRFNMAVSGALFCGLVLYTSGTATLKRQYGLPHFFDIGVDGQAKETMLKTLTSRWRYTPQGYGRVLITGVPTYILFVSLEHYRERRRMQQYLQQNTVFGEQMRRLLSTGKIEEYLPVNIKATLPASQQAIYNY

- binding [1]: binds
- binding [6]: binds
- binding [2]: binds
- binding [8]: binds
- binding [3]: binds
- binding [4]: binds
- binding [5]: binds
- binding [9]: binds
- binding [11]: binds
- binding [12]: binds
B3: F1 subunit γ (Tb10.100.0070) (protein, UniProt Q38CM0 1-305)
chain: MSGKLRLYKEKLEGYNRFYSIVKTIKMVTLAKYRAAQGRIRTRDFSLRYTELAFSKPQASRDAVAAAKNALVYIPITTNRGSCGALNSNIVRCIDSVVSSKMVLMPVGKRGIDSFSKLFPDEFRYGIINDMKESMHFGYATFVIENAYEVSKDADRYQVIFNRFVSAGVQRNAVYNIPSYEKWKEDLADAGSSDNQKNRYLFANALQNEEEQLIRDFFDFHAALAVLNAVGENELSEQAARLVAVEGQLTNISSLQQRTSSLYNKTRQFGITAALIEILSAMSSLEGNAMKGVRRNKFWEGAVTK

- binding [1]: binds
- binding [6]: binds
- binding [2]: binds
- binding [8]: binds
- binding [3]: binds
- binding [4]: binds
- binding [5]: binds
- binding [9]: binds
B4: Tb11.03.0475 (protein, UniProt Q387J1 1-106)
chain: MSPKGIRYKPCTHFMSAKAAPKTLHQVRNVAYFFAAWLGVQKGYIEKSANDRLWVEHQRKVRQQNVERQQALDSIKLMQQGVRATTPGQLEGVPAELQQLAEAFTK

Results are given in words; binding and its absence hold for the method and conditions named. Binding seen in cells or lysates may run through a third protein. These calls come from enrichment with a bait or labelling near it, and not all partners need be listed. For part of these data: A no says only that the protein was not detected with the bait. One block for each molecule: values may come before it.
